Measurements published in PubChem BioAssay AID1117319 (Southern Research Institute, 2015).
About 1,500 (0.58%) of roughly 260,000 compounds were called active. Inconclusive means that the source gave no clear call. Such entries were picked first, then a sample of the others.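 The calls were made as follows: active = inhibition above a set limit at one or more doses, reproduced on every date tested; inconclusive = results disagree between test dates, or hit never tested in dose response; inactive = the rest.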

By UniProt entry, the sequences of proteins in these tests, tags left out. Where a name states a change or a piece, a line headed by the entry shows the natural chain unless it says otherwise.
UniProt P69720: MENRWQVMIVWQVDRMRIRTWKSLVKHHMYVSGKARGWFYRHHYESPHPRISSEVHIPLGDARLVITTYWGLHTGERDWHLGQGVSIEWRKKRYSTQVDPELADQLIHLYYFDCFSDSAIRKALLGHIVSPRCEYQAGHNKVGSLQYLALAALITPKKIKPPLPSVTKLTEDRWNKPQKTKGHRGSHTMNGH
UniProt P69721: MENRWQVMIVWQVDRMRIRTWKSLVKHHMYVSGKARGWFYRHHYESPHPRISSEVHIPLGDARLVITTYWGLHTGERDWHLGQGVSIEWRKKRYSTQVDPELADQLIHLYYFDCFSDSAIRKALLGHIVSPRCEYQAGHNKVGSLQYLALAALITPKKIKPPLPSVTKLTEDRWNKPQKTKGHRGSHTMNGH
UniProt P69722: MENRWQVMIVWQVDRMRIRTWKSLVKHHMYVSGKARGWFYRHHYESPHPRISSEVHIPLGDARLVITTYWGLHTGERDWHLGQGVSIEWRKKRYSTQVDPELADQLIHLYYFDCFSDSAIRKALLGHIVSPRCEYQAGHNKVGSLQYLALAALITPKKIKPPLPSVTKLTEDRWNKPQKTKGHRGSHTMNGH
UniProt P69723: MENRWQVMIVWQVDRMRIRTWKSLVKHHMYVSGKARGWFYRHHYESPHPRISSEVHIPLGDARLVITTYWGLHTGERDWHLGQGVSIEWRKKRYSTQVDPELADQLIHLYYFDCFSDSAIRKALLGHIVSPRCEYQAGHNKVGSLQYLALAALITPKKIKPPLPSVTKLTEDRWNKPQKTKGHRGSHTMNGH
UniProt Q9HC16: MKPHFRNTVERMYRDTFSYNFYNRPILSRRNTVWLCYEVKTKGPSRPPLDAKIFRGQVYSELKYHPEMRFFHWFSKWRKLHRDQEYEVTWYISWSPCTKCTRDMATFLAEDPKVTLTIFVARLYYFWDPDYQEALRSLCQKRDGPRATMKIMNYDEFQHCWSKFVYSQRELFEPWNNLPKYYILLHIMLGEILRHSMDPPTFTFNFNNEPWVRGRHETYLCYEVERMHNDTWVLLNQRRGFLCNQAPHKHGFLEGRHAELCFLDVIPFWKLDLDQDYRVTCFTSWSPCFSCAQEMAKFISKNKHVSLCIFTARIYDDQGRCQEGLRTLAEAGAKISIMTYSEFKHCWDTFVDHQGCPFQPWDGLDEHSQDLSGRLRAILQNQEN

Target: Virion infectivity factor (Human immunodeficiency virus type 1 group M subtype B (isolate BH10)) + Virion infectivity factor (Human immunodeficiency virus type 1 group M subtype B (isolate BRU/LAI)) + Virion infectivity factor (Human immunodeficiency virus type 1 group M subtype B (isolate PCV12)) + Virion infectivity factor (Human immunodeficiency virus type 1 group M subtype B (isolate HXB2)) + DNA dC->dU-editing enzyme APOBEC-3G (Homo sapiens) (UniProt P69720+P69721+P69722+P69723+Q9HC16)
Experiment: inhibitors of Vif binding to APOBEC3G peptide, primary screen, biochemical, TR-FRET, GST-Vif 1-94, biotin-A3G peptide, dose response retest (AID 1117319);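 also: Vif residues 1-94 fused to GST binding biotinylated APOBEC3G peptide 110-148; 0% = full assay without inhibitor and 100% = GST in place of GST-Vif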
Conditions: active compounds read high

SMILES | inhibition
Cc1cc(N2C(=O)C(O)=C(C(=O)c3ccco3)C2c2cccnc2)no1 (stereo not given) | inconclusive: 45.3%
Cc1ccc(C(=O)CSc2nc3cccnc3n2C)cc1 | inactive: 6.72%
Clc1nnc2ccc(-c3ccccc3)nn12 | inconclusive: 33.7%
CCCCCC1CC(/C(C)=N/NC(N)=O)OC1=O (stereo not given) | inconclusive: 36.3%
Nc1nonc1-n1nnc(C(=O)N/N=C/c2ccc(Br)cc2)c1CSC1=NCCS1 | inconclusive: 62.8%
Nc1ccc(C(=O)N(CCO)CCO)cc1 | inactive: 2.26%
CC1(C)Cc2c(sc3nc(SCC(=O)N4CCOCC4)nc(N)c23)CO1 | inactive: 3.98%
COC(=O)c1sc(=S)sc1C(=O)OC | inconclusive: 43%
CCOC(=O)c1ccc2[nH]c(C)c(CCC(C)=O)c(=O)c2c1 | inconclusive: 47%
CC(=O)O[C@@H]1[C@@H](OC(C)=O)[C@H](n2ccc3cc([N+](=O)[O-])ccc32)OC[C@@H]1OC(C)=O | inactive: 11.9%
COc1ccc(CNS(=O)(=O)c2ccc(-n3cnnn3)c(OC)c2)cc1 | inconclusive: 50.4%
COc1ccc(CCNC(=O)c2cccnc2SC)cc1 | inconclusive: 33.7%
CCOc1ccccc1NC(=O)CC1NCCNC1=O (stereo not given) | inconclusive: 15.8%
COc1ccc(CC(=O)NNC(=O)CCC(=O)Nc2cc(C)ccc2C)cc1 | inconclusive: 49.3%
Cc1ccc(NC(=O)CS(=O)CC(=O)N(c2ccc(C)cc2)C(C)C(=O)NC2CCCCC2)cc1 (stereo not given) | inconclusive: 33.1%
O=C(Oc1ccc2ccccc2c1Cl)N1CCCCCC1 | inconclusive: 43.6%
COc1cccc(CNC(=O)COC(=O)C2CCN(c3ccc(C(F)(F)F)cn3)CC2)c1 | inconclusive: 39.5%
S=C(Nc1ccccc1Oc1ccccc1)NC1CCCC1 | inconclusive: 53.8%
CC1(C)CC(=O)c2sc(NC(=O)CN3C(=O)CCC3=O)nc2C1 | inconclusive: 40.9%
O=C(CSc1ccc2c(c1)OCCO2)N1CCN(c2ccccc2O)CC1 | inactive: 14.3%

SMILES | inhibition
O=C(COC(=O)/C=C/c1cc(Br)ccc1F)Nc1ccc2[nH]c(=O)[nH]c2c1 | inactive: -2.89%
Cc1cc(NC(=O)C2Oc3ccccc3OC2C)no1 (stereo not given) | inconclusive: 62.8%
O=C(COC(=O)c1ccccc1Sc1ccc(C(F)(F)F)cc1[N+](=O)[O-])NC(=O)NC1CCCC1 | inactive: -2.59%
O=c1/c(=C/c2ccc(CNS(=O)(=O)c3ccccc3)o2)sc2n1CCN=2 | inconclusive: 43.4%
CN(CC(O)CN1CCOCC1)S(=O)(=O)O (stereo not given) | inconclusive: 41.3%
COc1ccccc1N1CCN(/N=C/C=C\c2ccco2)CC1 | inconclusive: 42.1%
Cc1ccc2nc(/C(C#N)=C\c3ccc(N4CCOCC4)o3)[nH]c2c1 | inconclusive: 53.6%
COCCn1c(SCC(=O)Nc2sccc2C(N)=O)nnc1-c1ccncc1 | inactive: -0.42%
COc1ccc(OC)c(NC(=O)CCN2CCCCC2)c1 | inactive: -3.02%
COc1ccc(NC(=O)COC(=O)/C=C/C(=O)OCC(=O)Nc2ccc(OC)c(Cl)c2)cc1Cl | inconclusive: 36.5%
NS(=O)(=O)c1ccc(NC=C2C(=O)OC3(CCCCC3)OC2=O)cc1 | inconclusive: 37%
CCOC(=S)SCc1cn2ccc(C)cc2n1 | inconclusive: 45.5%
O=C(Nc1ccc(CN2CCCCC2)cc1)c1ccc(Br)o1 | inconclusive: 47.4%
CCN(CC(=O)Nc1ccccc1C(F)(F)F)C(=O)Cn1c(=O)cnc2ccccc21 | inactive: -3.46%
CCCCOC(=O)Nc1cc(Cl)ccc1C | inconclusive: 46.5%
COc1ccc(CN2CCC(CO)(Cc3ccccc3C(F)(F)F)CC2)c(F)c1 | inconclusive: 37.5%
CN(C)c1ccc(CN2CCCCCC2)cc1 | inactive: 8.55%
COc1cc(Nc2cc(C)nc3ncnn23)cc(OC)c1 | inconclusive: 31.2%
Cc1cccc(Cc2cnc(NC(=O)c3ccc(C)o3)s2)c1 | inconclusive: 34.2%
c1csc(-c2cnc3ccccc3n2)c1 | inconclusive: 40.9%

SMILES | inhibition
C=CCn1c(=O)/c(=C/c2ccc(Cl)cc2)s/c1=C(/C#N)c1nnc2n1CCCCC2 | inconclusive: 61.6%
CS(=O)(=O)Nc1ccccc1C(=O)N1CCCC1 | inconclusive: 33.5%
CC(=O)Nc1cccc(NC(=O)c2cc(C)on2)c1 | inconclusive: 36.5%
C=CCNC(=O)NC(=O)COC(=O)/C=C/c1cccc([N+](=O)[O-])c1 | inconclusive: 57.1%
C=CCN1C=C2C(=O)C(C)(OC(=O)C3CCCC3)C(=O)C(c3ccccc3)=C2C=C1CCCC(=O)OC (stereo not given) | inconclusive: 38.4%
N#C/C(=C\c1ccc([N+](=O)[O-])cc1)C(=O)NCCCn1ccnc1 | inconclusive: 43.4%
CNC(=S)NCCCc1ccccc1 | inconclusive: 43.8%
O=C(CN1C2=NCCN2c2ccccc21)c1ccc(Br)cc1 | inconclusive: 49.7%
Cc1nnc(Cl)c2nn(-c3ccccc3F)c(C)c12 | inconclusive: 46.5%
COc1ccc(-c2ccc(CCC(=O)O)n2-c2ccccc2O)cc1 | inconclusive: 37.1%
O=C(CSc1nc2ccccc2n1Cc1ccccc1)N/N=C/c1ccccc1C(=O)O | inactive: -4.24%
COC(=O)c1cc([N+](=O)[O-])c(-n2ccnc2)c([N+](=O)[O-])c1 | inconclusive: 41.7%
CCOc1ccccc1NC(=O)Nc1cccc(S(N)(=O)=O)c1 | inactive: 1.28%
CCCCC#Cc1cncc(C(=O)NN)c1 | inconclusive: 52.9%
Nc1ccc(N2CCCCC2)cc1N1CCCCC1 | inconclusive: 50.7%
Cc1nc2n[nH]c(N)c2c2c1COC(C)(C)C2 | inconclusive: 42.7%
Cc1ccc(-c2nnc3n2CCCCC3)cc1 | inactive: 32.1%
COc1ccc(CN2CCN(Cc3ccc(C)cc3)C(CCO)C2)cc1OC (stereo not given) | inconclusive: 42.4%
CCCCC(=O)Nc1ccc(C(=O)NNC(=S)NC(=O)c2cccs2)cc1 | inconclusive: 33%
COC(=O)CCc1c(C)c(C(=O)c2ccco2)c2ccccn12 | inconclusive: 34.8%

Single entries from the list.
inhibition, Cc1nc2n[nH]c(N)c2c2c1COC(C)(C)C2 reads inconclusive: 42.7%
inhibition, O=C(CN1C2=NCCN2c2ccccc21)c1ccc(Br)cc1 reads inconclusive: 49.7%

Looked up one by one from the entries so far (2):
SMILES | inhibition
O=C(COC(=O)/C=C/c1cc(Br)ccc1F)Nc1ccc2[nH]c(=O)[nH]c2c1 | inactive: -2.89%
O=C(CSc1nc2ccccc2n1Cc1ccccc1)N/N=C/c1ccccc1C(=O)O | inactive: -4.24%
